Experimental data as given in the supplement of paper PMC11006884.
This is a selection; strong and weak results do not stand in their true shares. This is a noisy data set.

Sequences of proteins named here, by UniProt entry; tags and fusion partners are left off. A change or cut given only in a name is not applied to a line headed by its entry.
UniProt P47756, whole entry, looked up: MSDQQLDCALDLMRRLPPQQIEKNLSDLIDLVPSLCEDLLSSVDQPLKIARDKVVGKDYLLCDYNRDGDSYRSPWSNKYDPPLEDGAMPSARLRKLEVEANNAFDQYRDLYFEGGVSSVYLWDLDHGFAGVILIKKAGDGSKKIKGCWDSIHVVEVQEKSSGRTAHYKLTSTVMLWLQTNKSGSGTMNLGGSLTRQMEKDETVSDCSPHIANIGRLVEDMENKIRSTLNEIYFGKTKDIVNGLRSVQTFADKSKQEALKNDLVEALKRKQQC
UniProt P43487, whole entry, looked up: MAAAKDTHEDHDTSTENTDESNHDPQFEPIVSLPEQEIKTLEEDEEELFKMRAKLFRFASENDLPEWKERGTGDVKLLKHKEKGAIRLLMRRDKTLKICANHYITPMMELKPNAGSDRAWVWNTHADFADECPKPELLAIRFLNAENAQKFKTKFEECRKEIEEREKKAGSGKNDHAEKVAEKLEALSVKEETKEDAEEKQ
UniProt P48506: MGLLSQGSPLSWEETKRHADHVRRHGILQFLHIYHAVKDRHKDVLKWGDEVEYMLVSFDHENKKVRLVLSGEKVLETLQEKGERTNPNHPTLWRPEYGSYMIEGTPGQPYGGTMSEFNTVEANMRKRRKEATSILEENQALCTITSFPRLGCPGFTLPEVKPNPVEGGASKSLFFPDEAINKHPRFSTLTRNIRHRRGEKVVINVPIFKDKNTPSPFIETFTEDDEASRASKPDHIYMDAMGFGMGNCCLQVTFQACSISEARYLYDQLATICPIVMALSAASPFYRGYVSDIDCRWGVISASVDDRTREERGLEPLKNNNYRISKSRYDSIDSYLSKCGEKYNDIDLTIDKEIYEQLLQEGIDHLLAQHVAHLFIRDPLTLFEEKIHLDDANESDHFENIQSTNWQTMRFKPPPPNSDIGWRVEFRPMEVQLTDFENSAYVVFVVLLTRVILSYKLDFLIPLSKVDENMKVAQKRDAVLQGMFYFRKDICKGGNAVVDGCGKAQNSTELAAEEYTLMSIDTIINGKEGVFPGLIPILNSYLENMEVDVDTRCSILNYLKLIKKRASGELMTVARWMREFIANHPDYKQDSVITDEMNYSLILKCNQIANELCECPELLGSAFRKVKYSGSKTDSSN
UniProt P49750: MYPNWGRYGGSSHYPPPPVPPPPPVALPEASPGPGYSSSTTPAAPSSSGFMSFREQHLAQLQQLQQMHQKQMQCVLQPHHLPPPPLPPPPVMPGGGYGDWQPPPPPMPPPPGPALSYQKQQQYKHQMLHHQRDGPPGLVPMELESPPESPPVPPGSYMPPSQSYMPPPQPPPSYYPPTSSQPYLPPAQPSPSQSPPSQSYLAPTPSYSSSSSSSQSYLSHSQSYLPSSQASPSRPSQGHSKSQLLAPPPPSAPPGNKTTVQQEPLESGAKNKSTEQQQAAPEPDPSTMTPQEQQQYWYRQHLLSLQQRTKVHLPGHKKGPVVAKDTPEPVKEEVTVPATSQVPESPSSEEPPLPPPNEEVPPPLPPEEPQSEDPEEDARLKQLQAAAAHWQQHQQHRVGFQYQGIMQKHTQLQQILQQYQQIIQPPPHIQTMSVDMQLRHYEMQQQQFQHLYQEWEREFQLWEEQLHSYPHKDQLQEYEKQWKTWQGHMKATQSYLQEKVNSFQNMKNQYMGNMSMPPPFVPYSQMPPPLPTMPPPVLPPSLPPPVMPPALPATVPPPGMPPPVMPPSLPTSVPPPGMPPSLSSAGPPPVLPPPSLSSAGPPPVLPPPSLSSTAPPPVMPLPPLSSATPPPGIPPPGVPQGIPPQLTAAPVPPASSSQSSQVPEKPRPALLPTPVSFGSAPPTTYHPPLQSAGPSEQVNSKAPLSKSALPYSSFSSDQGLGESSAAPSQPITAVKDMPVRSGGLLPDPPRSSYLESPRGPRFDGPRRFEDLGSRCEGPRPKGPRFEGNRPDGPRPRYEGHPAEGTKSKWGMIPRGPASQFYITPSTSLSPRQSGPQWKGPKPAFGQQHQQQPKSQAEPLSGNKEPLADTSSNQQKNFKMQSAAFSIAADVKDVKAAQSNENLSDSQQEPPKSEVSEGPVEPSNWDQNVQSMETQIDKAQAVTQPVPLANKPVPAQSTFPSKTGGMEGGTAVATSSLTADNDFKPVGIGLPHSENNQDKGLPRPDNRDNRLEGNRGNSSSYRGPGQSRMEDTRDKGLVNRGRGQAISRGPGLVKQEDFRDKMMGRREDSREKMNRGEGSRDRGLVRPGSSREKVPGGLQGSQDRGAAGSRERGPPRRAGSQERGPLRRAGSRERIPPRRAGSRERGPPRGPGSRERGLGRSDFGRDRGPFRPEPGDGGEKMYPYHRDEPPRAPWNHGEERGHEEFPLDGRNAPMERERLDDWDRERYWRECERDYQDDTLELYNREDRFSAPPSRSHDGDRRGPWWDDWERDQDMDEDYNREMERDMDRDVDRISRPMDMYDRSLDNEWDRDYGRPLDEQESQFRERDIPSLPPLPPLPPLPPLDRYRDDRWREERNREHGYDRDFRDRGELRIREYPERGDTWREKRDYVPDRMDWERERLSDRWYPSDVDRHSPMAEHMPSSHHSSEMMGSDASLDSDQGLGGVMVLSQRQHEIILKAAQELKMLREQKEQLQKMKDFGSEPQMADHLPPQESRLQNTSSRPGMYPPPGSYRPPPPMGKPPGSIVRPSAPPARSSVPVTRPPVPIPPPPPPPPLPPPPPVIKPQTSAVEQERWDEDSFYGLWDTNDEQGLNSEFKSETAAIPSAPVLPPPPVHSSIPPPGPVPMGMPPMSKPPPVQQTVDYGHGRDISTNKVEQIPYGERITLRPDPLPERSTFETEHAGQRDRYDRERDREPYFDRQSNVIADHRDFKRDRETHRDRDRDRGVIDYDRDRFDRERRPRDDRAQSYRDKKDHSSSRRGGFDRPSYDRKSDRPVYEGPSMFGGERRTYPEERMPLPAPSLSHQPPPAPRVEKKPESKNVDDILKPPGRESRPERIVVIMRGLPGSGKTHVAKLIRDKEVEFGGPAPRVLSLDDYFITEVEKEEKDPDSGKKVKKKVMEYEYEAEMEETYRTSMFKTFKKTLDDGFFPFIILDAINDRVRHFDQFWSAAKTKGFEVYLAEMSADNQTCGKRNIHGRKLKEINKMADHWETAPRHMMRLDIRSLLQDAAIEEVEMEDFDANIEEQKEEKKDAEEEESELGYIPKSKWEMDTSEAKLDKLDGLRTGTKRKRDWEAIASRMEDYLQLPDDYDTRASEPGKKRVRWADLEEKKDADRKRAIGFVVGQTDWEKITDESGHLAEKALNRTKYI
UniProt P50579: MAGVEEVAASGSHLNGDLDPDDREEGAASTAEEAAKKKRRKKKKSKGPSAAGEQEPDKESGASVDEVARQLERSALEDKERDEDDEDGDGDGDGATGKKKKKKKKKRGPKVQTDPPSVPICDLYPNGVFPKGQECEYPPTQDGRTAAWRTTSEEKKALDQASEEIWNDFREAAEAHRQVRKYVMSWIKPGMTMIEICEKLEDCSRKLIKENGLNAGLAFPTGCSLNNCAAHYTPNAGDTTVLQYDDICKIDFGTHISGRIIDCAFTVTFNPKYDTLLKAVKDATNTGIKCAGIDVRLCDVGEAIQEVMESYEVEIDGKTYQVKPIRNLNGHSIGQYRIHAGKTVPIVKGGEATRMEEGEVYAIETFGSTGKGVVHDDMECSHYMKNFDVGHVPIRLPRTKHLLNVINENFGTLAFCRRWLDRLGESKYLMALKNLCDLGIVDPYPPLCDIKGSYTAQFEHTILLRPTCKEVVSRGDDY
UniProt P51532, whole entry, looked up: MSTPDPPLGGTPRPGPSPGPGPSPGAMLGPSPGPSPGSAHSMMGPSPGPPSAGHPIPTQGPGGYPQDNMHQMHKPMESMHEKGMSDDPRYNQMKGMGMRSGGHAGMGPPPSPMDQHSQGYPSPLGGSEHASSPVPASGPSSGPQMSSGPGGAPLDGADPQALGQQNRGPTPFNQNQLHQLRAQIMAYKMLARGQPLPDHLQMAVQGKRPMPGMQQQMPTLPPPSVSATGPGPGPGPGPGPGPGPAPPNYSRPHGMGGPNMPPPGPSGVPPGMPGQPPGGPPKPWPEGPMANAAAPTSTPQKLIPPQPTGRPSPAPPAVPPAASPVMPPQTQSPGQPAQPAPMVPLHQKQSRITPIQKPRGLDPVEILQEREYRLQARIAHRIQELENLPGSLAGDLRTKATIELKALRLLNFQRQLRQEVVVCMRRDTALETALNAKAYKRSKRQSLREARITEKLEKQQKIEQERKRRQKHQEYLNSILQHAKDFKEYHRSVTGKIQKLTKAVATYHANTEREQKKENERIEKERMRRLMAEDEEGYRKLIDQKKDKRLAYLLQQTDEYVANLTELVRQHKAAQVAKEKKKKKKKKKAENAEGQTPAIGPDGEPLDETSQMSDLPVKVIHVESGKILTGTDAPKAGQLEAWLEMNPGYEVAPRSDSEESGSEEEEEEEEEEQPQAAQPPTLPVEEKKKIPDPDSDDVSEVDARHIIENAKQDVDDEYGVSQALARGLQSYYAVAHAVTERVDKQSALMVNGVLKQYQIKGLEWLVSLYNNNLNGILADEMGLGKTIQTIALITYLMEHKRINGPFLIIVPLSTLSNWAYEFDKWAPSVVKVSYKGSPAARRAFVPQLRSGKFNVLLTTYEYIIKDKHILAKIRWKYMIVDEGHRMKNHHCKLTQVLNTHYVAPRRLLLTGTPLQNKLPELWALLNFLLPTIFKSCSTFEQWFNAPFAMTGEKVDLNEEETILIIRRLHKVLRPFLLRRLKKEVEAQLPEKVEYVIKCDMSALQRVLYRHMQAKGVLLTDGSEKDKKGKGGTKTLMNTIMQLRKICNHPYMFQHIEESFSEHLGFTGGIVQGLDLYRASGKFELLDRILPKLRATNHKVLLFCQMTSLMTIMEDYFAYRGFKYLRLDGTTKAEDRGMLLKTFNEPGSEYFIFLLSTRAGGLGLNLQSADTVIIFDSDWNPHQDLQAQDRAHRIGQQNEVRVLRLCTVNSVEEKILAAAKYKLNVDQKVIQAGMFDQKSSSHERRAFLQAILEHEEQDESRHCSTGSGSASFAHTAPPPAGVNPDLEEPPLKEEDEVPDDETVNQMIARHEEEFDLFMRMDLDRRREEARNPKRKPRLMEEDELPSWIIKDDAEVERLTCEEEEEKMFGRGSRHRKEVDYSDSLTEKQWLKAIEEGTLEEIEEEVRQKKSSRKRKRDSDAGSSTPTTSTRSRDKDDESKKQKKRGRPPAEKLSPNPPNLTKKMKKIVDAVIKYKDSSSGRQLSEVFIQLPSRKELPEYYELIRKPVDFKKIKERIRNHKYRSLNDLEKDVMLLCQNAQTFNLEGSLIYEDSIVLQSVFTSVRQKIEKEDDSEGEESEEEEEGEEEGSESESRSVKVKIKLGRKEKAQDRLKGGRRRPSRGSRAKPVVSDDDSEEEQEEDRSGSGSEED
UniProt P48637: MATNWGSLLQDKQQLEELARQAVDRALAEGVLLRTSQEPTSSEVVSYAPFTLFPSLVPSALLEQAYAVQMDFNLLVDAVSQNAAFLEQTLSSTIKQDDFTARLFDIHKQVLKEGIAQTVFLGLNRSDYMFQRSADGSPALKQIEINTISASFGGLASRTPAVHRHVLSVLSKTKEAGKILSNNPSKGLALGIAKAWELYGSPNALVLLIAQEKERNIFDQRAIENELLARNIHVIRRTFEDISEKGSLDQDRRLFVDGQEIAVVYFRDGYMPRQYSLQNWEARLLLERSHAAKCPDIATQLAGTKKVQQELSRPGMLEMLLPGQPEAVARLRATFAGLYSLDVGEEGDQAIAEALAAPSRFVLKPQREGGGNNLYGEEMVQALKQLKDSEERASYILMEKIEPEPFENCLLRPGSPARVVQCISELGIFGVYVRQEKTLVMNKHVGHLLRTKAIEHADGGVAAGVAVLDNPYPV
UniProt P48147: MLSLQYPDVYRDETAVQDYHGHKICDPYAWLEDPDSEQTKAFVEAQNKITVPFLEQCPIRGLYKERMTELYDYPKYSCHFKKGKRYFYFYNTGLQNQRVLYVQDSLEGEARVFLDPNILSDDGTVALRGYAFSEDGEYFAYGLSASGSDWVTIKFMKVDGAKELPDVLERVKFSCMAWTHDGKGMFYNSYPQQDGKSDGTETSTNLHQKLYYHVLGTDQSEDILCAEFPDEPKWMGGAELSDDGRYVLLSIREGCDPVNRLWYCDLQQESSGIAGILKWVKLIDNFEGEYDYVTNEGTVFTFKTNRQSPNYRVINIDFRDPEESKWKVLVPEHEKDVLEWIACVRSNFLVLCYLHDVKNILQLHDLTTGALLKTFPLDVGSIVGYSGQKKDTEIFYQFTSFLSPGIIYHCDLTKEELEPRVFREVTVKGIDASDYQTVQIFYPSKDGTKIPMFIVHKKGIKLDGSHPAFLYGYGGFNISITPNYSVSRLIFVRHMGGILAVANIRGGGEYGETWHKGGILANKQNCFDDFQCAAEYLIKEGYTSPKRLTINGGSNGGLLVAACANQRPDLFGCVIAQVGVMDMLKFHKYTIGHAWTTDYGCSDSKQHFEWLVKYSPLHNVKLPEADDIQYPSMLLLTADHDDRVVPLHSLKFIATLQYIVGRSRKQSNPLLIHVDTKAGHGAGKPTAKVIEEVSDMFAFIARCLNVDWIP

compound: COC(=O)/C=C/c1ccccc1 [methyl cinnamate]; test: log2 ratio of iodoacetamide-alkyne labeling of the cysteine site, DMSO over compound (competition); higher = stronger covalent engagement of the cysteine by the compound, active = 1 or more; conditions: 500 µM; treatment time 1 h; system: HEK293T cell lysate
Procedure, shortened: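 HEK293T lysate (2 mg/mL) was treated with DMSO or electrophile (500 µM, 1 h, ambient temperature), then iodoacetamide alkyne (1 h), clicked to sCIP-TMT reagents, pooled, trypsin-digested overnight at 37 °C, streptavidin-enriched and acid-eluted. Peptides were run on Orbitrap Eclipse LC-MS/MS with FAIMS and quantified in FragPipe. The log2 competition ratio per cysteine is mean control-channel over mean compound-channel reporter intensity. Duplicate channels and three replicates were used, and cysteines quantified in only one replicate were excluded.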

log2 ratio of iodoacetamide-alkyne labeling, inactive:
CAMLG C123 (UniProt P49069) 0.239
RANBP2 C220 (UniProt P49792) 0.0399
MKI67 C1285 (UniProt P46013) 0.257
CAPZB C8 (UniProt P47756) 0.59
CCT3 C40 (UniProt P49368) -0.0239
RANBP1 C132 (UniProt P43487) 0.0918
GCLC C553 (UniProt P48506) 0.156
YLPM1 C1967 (UniProt P49750) 0.133
METAP2 C135 (UniProt P50579) 0.291
CCT3 C279 (UniProt P49368) 0.206
SMARCA4 C936 (UniProt P51532) 0.145
GSS C294 (UniProt P48637) 0.377
VASP C64 (UniProt P50552) -0.0221
PREP C255 (UniProt P48147) -0.0778
NASP C254 (UniProt P49321) -0.119

Copied from the results shown for reference:
log2 ratio of iodoacetamide-alkyne labeling, inactive:
CAMLG C123 (UniProt P49069) 0.239
RANBP2 C220 (UniProt P49792) 0.0399
